These are yes or no findings as the source states them, for the method shown. Binding seen in cells or lysates may run through a third protein. A yes stands for co-enrichment or nearness to the bait. Other partners may have been found. No binding means not detected with the bait. Where a sequence is shown, tags or fusion partners need not be part of it.
T1: C-terminally tagged Creld2 (C2-SF), murine (mouse) (UniProt Q9CYA0)
T1 sequence: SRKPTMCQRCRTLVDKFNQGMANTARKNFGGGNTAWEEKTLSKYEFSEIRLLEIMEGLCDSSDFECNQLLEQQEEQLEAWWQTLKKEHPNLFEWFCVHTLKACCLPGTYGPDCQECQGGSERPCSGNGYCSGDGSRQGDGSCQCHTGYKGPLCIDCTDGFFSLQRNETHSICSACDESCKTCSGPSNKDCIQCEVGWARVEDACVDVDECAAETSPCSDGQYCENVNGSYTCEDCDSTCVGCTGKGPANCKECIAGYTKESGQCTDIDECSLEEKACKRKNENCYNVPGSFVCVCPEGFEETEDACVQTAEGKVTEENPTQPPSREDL

The chains behind the UniProt entries cited, without tags or fusion partners. Residues count along the entry.
UniProt P11021, residues 19-654: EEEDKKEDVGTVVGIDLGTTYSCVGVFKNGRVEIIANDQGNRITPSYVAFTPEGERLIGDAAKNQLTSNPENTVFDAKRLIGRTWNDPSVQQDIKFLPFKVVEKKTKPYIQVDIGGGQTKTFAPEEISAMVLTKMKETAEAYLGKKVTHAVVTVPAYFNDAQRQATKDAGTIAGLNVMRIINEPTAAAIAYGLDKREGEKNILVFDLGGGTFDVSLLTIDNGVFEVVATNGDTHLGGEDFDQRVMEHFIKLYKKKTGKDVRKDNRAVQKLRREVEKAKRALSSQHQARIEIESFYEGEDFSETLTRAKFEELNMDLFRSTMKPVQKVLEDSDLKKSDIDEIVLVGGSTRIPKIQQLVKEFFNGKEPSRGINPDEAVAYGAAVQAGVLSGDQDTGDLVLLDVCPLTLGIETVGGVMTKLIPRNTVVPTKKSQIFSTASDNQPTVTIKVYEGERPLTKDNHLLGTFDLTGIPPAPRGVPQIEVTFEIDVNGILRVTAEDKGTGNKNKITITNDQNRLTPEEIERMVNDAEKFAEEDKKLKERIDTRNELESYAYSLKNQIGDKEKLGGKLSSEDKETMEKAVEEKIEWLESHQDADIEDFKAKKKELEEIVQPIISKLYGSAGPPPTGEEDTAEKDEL
UniProt Q8NBS9, residues 33-432: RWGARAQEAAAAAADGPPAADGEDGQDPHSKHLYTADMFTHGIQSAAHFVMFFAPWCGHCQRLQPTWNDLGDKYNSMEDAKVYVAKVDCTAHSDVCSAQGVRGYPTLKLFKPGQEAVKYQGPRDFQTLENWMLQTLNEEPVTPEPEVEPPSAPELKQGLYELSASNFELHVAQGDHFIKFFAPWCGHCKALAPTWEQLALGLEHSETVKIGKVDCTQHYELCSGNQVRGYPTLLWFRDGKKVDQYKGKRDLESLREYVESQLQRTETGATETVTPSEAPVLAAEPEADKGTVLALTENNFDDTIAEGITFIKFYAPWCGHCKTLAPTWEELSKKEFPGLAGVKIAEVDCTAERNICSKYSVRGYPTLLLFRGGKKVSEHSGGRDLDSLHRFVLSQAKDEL
UniProt P11142: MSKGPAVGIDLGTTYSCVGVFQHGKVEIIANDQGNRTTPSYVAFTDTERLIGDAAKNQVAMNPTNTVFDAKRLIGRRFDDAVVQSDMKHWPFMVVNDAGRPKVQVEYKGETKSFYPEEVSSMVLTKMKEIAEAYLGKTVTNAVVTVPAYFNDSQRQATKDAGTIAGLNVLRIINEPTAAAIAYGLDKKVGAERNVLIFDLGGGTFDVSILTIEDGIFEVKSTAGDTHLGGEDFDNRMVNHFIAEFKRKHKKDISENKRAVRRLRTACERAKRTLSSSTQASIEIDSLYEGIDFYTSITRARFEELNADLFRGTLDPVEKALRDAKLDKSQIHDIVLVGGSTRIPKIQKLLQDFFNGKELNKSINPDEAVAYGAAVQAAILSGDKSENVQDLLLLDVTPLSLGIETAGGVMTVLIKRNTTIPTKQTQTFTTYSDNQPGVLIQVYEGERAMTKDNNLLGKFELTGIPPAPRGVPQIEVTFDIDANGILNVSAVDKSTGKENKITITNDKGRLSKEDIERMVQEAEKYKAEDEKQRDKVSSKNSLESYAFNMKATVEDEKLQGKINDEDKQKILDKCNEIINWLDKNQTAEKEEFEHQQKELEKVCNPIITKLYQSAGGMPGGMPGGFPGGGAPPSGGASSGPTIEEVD

T2: N-terminally tagged Creld2 (FS-C2), murine (mouse) (UniProt Q9CYA0)
T2 sequence: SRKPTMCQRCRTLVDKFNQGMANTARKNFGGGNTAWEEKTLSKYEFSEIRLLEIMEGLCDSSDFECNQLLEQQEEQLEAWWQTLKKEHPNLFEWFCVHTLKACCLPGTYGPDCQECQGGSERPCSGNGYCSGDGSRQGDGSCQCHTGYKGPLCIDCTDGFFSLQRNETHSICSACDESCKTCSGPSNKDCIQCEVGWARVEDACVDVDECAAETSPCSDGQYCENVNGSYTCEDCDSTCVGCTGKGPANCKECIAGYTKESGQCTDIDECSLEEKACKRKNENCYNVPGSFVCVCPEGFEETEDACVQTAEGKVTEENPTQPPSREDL


Tests used:
[1] = target: T1, C-terminally tagged Creld2 (C2-SF), murine (mouse); experiment: affinity purification with mass spectrometry
[2] = target: T2, N-terminally tagged Creld2 (FS-C2), murine (mouse); experiment: affinity purification with mass spectrometry

binding [1] | binding [2] | Molecule
binds |  | HSPA5 (GRP78) (from UniProt P11021 19-654)
binds |  | thioredoxin domain-containing 5 (TXNDC5) (from UniProt Q8NBS9 33-432)
binds |  | glutathione S-transferase Mu3 (GSTM3) (enzyme, UniProt P21266 1-225) MSCESSMVLGYWDIRGLAHAIRLLLEFTDTSYEEKRYTCGEAPDYDRSQWLDVKFKLDLDFPNLPYLLDGKNKITQSNAILRYIARKHNMCGETEEEKIRVDIIENQVMDFRTQLIRLCYSSDHEKLKPQYLEELPGQLKQFSMFLGKFSWFAGEKLTFVDFLTYDILDQNRIFDPKCLDEFPNLKAFMCRFEALEKIAAYLQSDQFCKMPINNKMAQWGNKPVC

The next lines start with the molecule.

Molecule | binding [1] | binding [2]
HSP90B (human (endogenous in HEK293)) | no binding | no binding
HSPA8 (from UniProt P11142 1-646) | no binding | no binding
HYOU1 (protein, UniProt Q9Y4L1 33-999) LAVMSVDLGSESMKVAIVKPGVPMEIVLNKESRRKTPVIVTLKENERFFGDSAASMAIKNPKATLRYFQHLLGKQADNPHVALYQARFPEHELTFDPQRQTVHFQISSQLQFSPEEVLGMVLNYSRSLAEDFAEQPIKDAVITVPVFFNQAERRAVLQAARMAGLKVLQLINDNTATALSYGVFRRKDINTTAQNIMFYDMGSGSTVCTIVTYQMVKTKEAGMQPQLQIRGVGFDRTLGGLEMELRLRERLAGLFNEQRKGQRAKDVRENPRAMAKLLREANRLKTVLSANADHMAQIEGLMDDVDFKAKVTRVEFEELCADLFERVPGPVQQALQSAEMSLDEIEQVILVGGATRVPRVQEVLLKAVGKEELGKNINADEAAAMGAVYQAAALSKAFKVKPFVVRDAVVYPILVEFTREVEEEPGIHSLKHNKRVLFSRMGPYPQRKVITFNRYSHDFNFHINYGDLGFLGPEDLRVFGSQNLTTVKLKGVGDSFKKYPDYESKGIKAHFNLDESGVLSLDRVESVFETLVEDSAEEESTLTKLGNTISSLFGGGTTPDAKENGTDTVQEEEESPAEGSKDEPGEQVELKEEAEAPVEDGSQPPPPEPKGDATPEGEKATEKENGDKSEAQKPSEKAEAGPEGVAPAPEGEKKQKPARKRRMVEEIGVELVVLDLPDLPEDKLAQSVQKLQDLTLRDLEKQEREKAANSLEAFIFETQDKLYQPEYQEVSTEEQREEISGKLSAASTWLEDEGVGATTVMLKEKLAELRKLCQGLFFRVEERKKWPERLSALDNLLNHSSMFLKGARLIPEMDQIFTEVEMTTLEKVINETWAWKNATLAEQAKLPATEKPVLLSKDIEAKMMALDREVQYLLNKAKFTKPRPRPKDKNGTRAEPPLNASASDQGEKVIPPAGQTEDAEPISEPEKVETGSEPGDTEPLELGGPGAEPEQKEQSTGQKRPLKNDEL | no binding | no binding

From paper doi:10.1101/2020.01.28.923136
